The source of these data is article PMC3347614 (Acta Naturae, 2011).

Amino acid sequences for entries named in this document (tags omitted).
UniProt P0AES4, whole entry: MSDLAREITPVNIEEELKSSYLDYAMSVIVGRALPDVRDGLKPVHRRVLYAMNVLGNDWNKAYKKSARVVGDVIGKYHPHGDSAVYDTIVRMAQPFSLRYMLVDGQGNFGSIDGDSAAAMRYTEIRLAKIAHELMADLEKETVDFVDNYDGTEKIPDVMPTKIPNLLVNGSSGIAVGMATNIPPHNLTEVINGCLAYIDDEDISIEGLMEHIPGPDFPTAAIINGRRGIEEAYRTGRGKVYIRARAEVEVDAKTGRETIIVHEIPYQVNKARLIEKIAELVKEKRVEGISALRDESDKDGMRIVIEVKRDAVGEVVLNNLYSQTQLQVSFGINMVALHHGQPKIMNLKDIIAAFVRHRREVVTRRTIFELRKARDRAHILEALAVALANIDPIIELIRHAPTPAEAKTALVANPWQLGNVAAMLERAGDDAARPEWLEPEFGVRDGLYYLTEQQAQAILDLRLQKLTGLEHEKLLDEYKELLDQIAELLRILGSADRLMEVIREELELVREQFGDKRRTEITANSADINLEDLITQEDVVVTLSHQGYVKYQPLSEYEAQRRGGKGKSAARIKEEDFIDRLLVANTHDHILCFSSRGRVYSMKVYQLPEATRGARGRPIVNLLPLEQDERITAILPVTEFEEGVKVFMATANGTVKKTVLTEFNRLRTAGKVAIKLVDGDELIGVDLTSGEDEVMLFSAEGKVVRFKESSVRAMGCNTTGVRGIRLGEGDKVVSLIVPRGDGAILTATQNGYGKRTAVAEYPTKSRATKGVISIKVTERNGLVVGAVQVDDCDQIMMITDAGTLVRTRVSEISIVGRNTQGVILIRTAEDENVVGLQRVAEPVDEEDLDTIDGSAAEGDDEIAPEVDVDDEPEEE

This experiment addresses T1, DNA gyrase (Escherichia coli, UniProt P0AES4+P0AES6).
T1 construct: His6 (N); made in house; host or cells: Escherichia coli Rosetta (DE3)
Put plainly: Inhibition of DNA gyrase supercoiling of relaxed plasmid pBR322 (agarose gel electrophoresis). The experiment is classed as biochemical, E. coli. On the procedure:
The reaction mixture (30 µl) contained 35 mM Tris-HCl (pH 7.5), 24 mM KCl, 4 mM MgCl 2 , 1.4 mM ATP, 5 mM DTT, 1.8 mM spermidine, and 0.1 mg/ml of a bovine serum albumin. A mixture of DNA gyrase A and B subunits (0.4 µg) and 0.25–0.5 µg of the substrate (relaxed plasmid pBR322) were added to the reaction probe. The reaction was performed for 60 min at 25°C (for multiple samples, 96-well plates were used). After the reaction was completed, the samples were extracted with an equal volume of chloroform (30 µl). Then, 7 µl of the mixture containing […], 25% of glycerol, and 0.25% of bromphenol blue were added to the aqueous phase. The mixture was applied on a 1.2% agarose gel in TAE buffer (40 mM Tris-acetate, pH 8.0, 2 mM EDTA) and analyzed with electrophoresis (50 V, 2 h). The products were visualized under UV-light after staining with ethidium bromide. The activity of the enzyme (%) was determined from the intensity of the band corresponding to the super-coiled form of plasmid pBR322 and estimated using the Total Lab v2.01 software.
An equal volume of DMSO was added to the control. The reaction was started upon addition of DNA gyrase (0.4 µg) and relaxed plasmid pBR322 (0.25–0.5 µg), which was used as a substrate, and performed as described above. Calculations were made using the Total Lab v2.01 program.

With `CCn1cc(C(=O)O)c(=O)c2cc(F)c(N3CCN(C)CC3)cc21` [IOS-PEFL_02, pefloxacin, reference compound], the “Inhibitory activity towards DNA gyrase, in words” value (qualitative statement) is “moderate activity”. In addition, the “Activity towards DNA gyrase compared with that of levofloxacin” value (relative to levofloxacin, in words) is on record as “significantly lower”.
